Drawing on PMC7819943, “Rice protein-binding microarrays: a tool to detect cis-acting elements near promoter regions in rice”, this text covers binding signal for 42 sequences.

Amino acid sequences for entries named in this document (tags omitted).
UniProt Q0JBA9, entry or part of it: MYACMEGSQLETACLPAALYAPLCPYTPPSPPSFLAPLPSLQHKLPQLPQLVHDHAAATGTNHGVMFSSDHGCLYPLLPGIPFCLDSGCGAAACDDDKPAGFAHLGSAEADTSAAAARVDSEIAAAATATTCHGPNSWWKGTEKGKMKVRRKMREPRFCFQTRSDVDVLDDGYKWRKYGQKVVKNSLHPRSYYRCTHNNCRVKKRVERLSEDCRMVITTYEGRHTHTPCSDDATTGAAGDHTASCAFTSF

This is one part of the list.

The test deals with OsWRKY34 (Oryza sativa, UniProt Q0JBA9 1-250). In words: protein-binding microarray (RPBM); PBS, 2% BSA, 51.3 ng/ul salmon testes DNA, 50 uM zinc acetate, 200 nM TF, 25 C, 1 h; high values mean tight binding. Conditions: protein: recombinant; tags: N-terminal polyhistidine and DsRed monomer fusion (pET32a); label: CyDye5-dUTP incorporated in the synthesized complementary strand; 3' TTTTT single-stranded linker to array surface; dsDNA, one strand shown. Summed up:
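The binding signal is fluorescence intensity per feature, in arbitrary units, read on an Axon 4000B scanner. Polyhistidine- and DsRed-tagged transcription factors (N-terminal fusions) from E. coli BL21-CodonPlus were purified on Ni–NTA and applied at 200 nM for 1 h at 25 °C to a double-stranded, BSA-blocked custom Agilent array in buffer with 50 µM zinc acetate.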
As to “CTGTACTCTGCATGCTTTGGTTTGCTAATATTTAGCCAAACGGAGTCACCTAGTGCAG”, the binding signal was 8880 fluorescence intensity (a.u.).

As to “TCCACTGCCTAGACACGCCACGACTTGGACCATCAGCTAGCGGAGTCACCTAGTGCAG”, the binding signal is 10800 fluorescence intensity (a.u.).

As to “CAGGGGCTCCAATACTGACGCGTCGCCGGCGTACGTCCTCCGGAGTCACCTAGTGCAG”, the binding signal is 9640 fluorescence intensity (a.u.).

Regarding “TCTGTTTGCGTCTTTGCCTTTTGGGACCCTTGCCTTTTTACGGAGTCACCTAGTGCAG”, the binding signal was 15100 fluorescence intensity (a.u.).

On to “GTACGGAGCAAATTCTCTCCTTAACTAATTATATGTCAATCGGAGTCACCTAGTGCAG”, for which the binding signal is 8090 fluorescence intensity (a.u.).

“TCTTTTTGTTTGCTCCAGCTTCTCCATGGTTTTTTTTGTTCGGAGTCACCTAGTGCAG”: the binding signal is 9230 fluorescence intensity (a.u.).

“AGTCTTTTGTTAATGCATATTGTTGAATTCTTGGGGTTGACGGAGTCACCTAGTGCAG”: the binding signal was 13700 fluorescence intensity (a.u.).

As for “CCTTTCCGGTCATATCAGCGTCCTTCGCCCGACCAATCACCGGAGTCACCTAGTGCAG”, the binding signal was 8600 fluorescence intensity (a.u.).

With “TTTAGTTTCTCTGTTGGACCGTACAATCCGGTGTTCTTCCCGGAGTCACCTAGTGCAG”, the binding signal is 9140 fluorescence intensity (a.u.).

On to “ACTCGCGATATGCTTGTAACTTGGTTTGGTATTCCATTCTCGGAGTCACCTAGTGCAG”, for which the binding signal was 9670 fluorescence intensity (a.u.).

Turning to “AAATATACCGTTTTGCTTATTCCGCGATGGCTCCAAGTCTCGGAGTCACCTAGTGCAG”, the binding signal is 11400 fluorescence intensity (a.u.).

Turning to “GTATTTCTATATGGACTCTAGTCACCTCTTCTAATATTTCCGGAGTCACCTAGTGCAG”, the binding signal was 10300 fluorescence intensity (a.u.).

“ACATACTTCCTAAACTGCTAAACGGTGTATGTTTGTTTTTCGGAGTCACCTAGTGCAG”: the binding signal was 9770 fluorescence intensity (a.u.).

On to “TTGCTGCGCAAAGATTTGGTCCTTTCTCGGTCTGTTTCTTCGGAGTCACCTAGTGCAG”, for which the binding signal was 9420 fluorescence intensity (a.u.).

For “ATGGGTTAATTTTTGGATATATGTTAACTTGCTCACTATACGGAGTCACCTAGTGCAG”, the binding signal was 8430 fluorescence intensity (a.u.).

With “TGACTCCCTTAACTATTGGCCAAATCTAATTCGTATCCTTCGGAGTCACCTAGTGCAG”, the binding signal was 9250 fluorescence intensity (a.u.).

As for “ATAGGCATGGTTTAATTATTCGGTTTGGCCGATTCTATCACGGAGTCACCTAGTGCAG”, the binding signal was 9190 fluorescence intensity (a.u.).

“CCCCACCCCGCGTGTCCACCCACCCACCCGCACCAATTTTCGGAGTCACCTAGTGCAG”: the binding signal is 9600 fluorescence intensity (a.u.).

“ATCTCCGCCGCCGCCGCCTCCTACTCGTCGCCCTCCTCCTCGGAGTCACCTAGTGCAG”: the binding signal was 10300 fluorescence intensity (a.u.).

On to “ATATATCATTGTGTATTTCTATCTTTTGCTGTTGTAATAGCGGAGTCACCTAGTGCAG”, for which the binding signal is 9670 fluorescence intensity (a.u.).

Regarding “GGTTGGGGCGTGGGCGGCTGGGCGCGTGGGTTGCCCGCGACGGAGTCACCTAGTGCAG”, the binding signal is 15600 fluorescence intensity (a.u.).

For “GCTTGTGGTTCGTTAGAATCTTGCTTTGTTGCCGCCTAACCGGAGTCACCTAGTGCAG”, the binding signal is 8070 fluorescence intensity (a.u.).

Regarding “CTTTTCTAGCCGTTCACTTTTTTTTACCACAGTAGTTTTTCGGAGTCACCTAGTGCAG”, the binding signal was 16600 fluorescence intensity (a.u.).

In the case of “CATGCACTCTCGCCATCTCGATCTTTTTACCCAATTCTTGCGGAGTCACCTAGTGCAG”, the binding signal is 8280 fluorescence intensity (a.u.).

Turning to “TGCTAATGGTTTTTTTGTTATGCATTCCTTTAACTTCATCCGGAGTCACCTAGTGCAG”, the binding signal is 12400 fluorescence intensity (a.u.).

As to “AAAACCTGCAGCAGAGATGAGCCGTTTCGTTTCCTTTCGTCGGAGTCACCTAGTGCAG”, the binding signal was 8870 fluorescence intensity (a.u.).

“AGTCCAAGCCGGCCCAACACCCAGCCGAGCCGCCAATTCGCGGAGTCACCTAGTGCAG”: the binding signal was 8050 fluorescence intensity (a.u.).

As to “TTACACTACGATTGTACTGTAATTACATCTGTCAAATTTTCGGAGTCACCTAGTGCAG”, the binding signal is 8450 fluorescence intensity (a.u.).

As to “TAATCCAGTGGGAACACAGCAACGCACCTTTTTTTGTTTTCGGAGTCACCTAGTGCAG”, the binding signal is 10100 fluorescence intensity (a.u.).

In the case of “GCTCAATTCCTAGCCGTTGCCATATACTACTCCGTATGTGCGGAGTCACCTAGTGCAG”, the binding signal was 11000 fluorescence intensity (a.u.).

“CGAGTCAAGCTCCGCCAGTGAGAATACAGGTTGACTTCGACGGAGTCACCTAGTGCAG”: the binding signal was 8510 fluorescence intensity (a.u.).

“CCTCAACGGCACCATCCCCGCCGGCTTGCTCTACCTGCCACGGAGTCACCTAGTGCAG”: the binding signal was 9380 fluorescence intensity (a.u.).

“GGCTTTCAAGCTTCCAGCCCAGTTTAGTTCAACGCCCATTCGGAGTCACCTAGTGCAG”: the binding signal is 8320 fluorescence intensity (a.u.).

As to “AGGTGTTGGTTGGGAAATCCGATACTTATGCGGGGTTCCCCGGAGTCACCTAGTGCAG”, the binding signal is 8840 fluorescence intensity (a.u.).

Turning to “AACACATGAATCAGTGTTTTGACTCATTTCTCCCTTTGTACGGAGTCACCTAGTGCAG”, the binding signal was 8250 fluorescence intensity (a.u.).

Turning to “AGTTCTTTTACCAACTTTTCCAATTTACCACCCTCATTTTCGGAGTCACCTAGTGCAG”, the binding signal is 8560 fluorescence intensity (a.u.).

On to “CTATATAAGCAGCCGCAGTAGCGCACCACATAGCTCGCTCCGGAGTCACCTAGTGCAG”, for which the binding signal was 8210 fluorescence intensity (a.u.).

On to “GAAGGTTCCTTGGTTTTCATATAGACTTTCCATACAGCATCGGAGTCACCTAGTGCAG”, for which the binding signal was 8520 fluorescence intensity (a.u.).

With “CGCCAACTCCGGCCCGCCTAGTCTTTCTCAACAACCAGAACGGAGTCACCTAGTGCAG”, the binding signal is 8280 fluorescence intensity (a.u.).

For “GCTGGGAGCTCGGATCACGTCGTGTGGTTGTGGGGATGGACGGAGTCACCTAGTGCAG”, the binding signal is 9170 fluorescence intensity (a.u.).

Consider “GGCGAGGGTGGGTATGGGACAAGGCGGTGGATGATGGTTCCGGAGTCACCTAGTGCAG”, for which the binding signal was 12200 fluorescence intensity (a.u.).

“ATATCCTTCCAAATGATACTGTGCTTCTTTCTGTTACAAACGGAGTCACCTAGTGCAG”: the binding signal was 9410 fluorescence intensity (a.u.).
